Measured values reported in US6617361B2, “Behavior chemotherapy” (Be Able, LLC, priority 1999, dated 2003).

Tests used:
Patient four = experiment: Protocol and results with patient four (morbid obesity, cardiomyopathy); assay type: in vivo, human
Protocol: This person has been in the practice for several years. Their medical problems surround a cardiomyopathy with a low cardiac output state and heart failure. They also have a history of hypertension, hypothyroidism on therapy, and morbid obesity.
Medication alterations continued over the next several months with increasing Ionamin to 30 mg. Hytrin was added at 2 mg because of prostatic symptoms and in November Pondimin was added.
Adipex-P 37.5 one-half was added to their medications. […]

Patient six = experiment: Protocol and results with patient six, Example 10 (fibromyalgia, obesity); assay type: in vivo, human; settings: current medication includes Ionamin 15 mg q.a.m. and Aricept one-quarter pill MWF
Source text: This longstanding patient was first seen in 1988 for fibromyalgia. They are also bothered by chronic low back pain, mitral valve prolapse, sleep disturbance, a family history of coronary disease, and obesity. They are 5′8″ tall, 205½ lb. […] Their problem list contained the additional diagnoses of GERD, carpal tunnel syndrome, suspected mitral valve prolapse, and acne rosacea.
Their medication list included Synthroid, Estratest, Klonopin, Prilosec, Limbitrol, Provera, Premarin and Zostrix cream. […] They frequented health food stores, as well as chiropractors for relief.
Although greatly fearful of potential long-term problems, the patient finally agreed to the institution of a change in their medications and started therapy which was a major change in their medicines December 1995. […] At that time the patient's weight was in the mid 180s. Their other medications were continued.
This was an independent patient-initiated decision.

Patient two = experiment: Protocol and results with patient two (leg pain, absence of energy); assay type: in vivo, human; settings: August 1999, from 143 lb November 1998; Celexa 10 mg + Adipex-P 37.5 one-half (+ atenolol 25 mg), later with Aricept 1.25 mg three times weekly
Protocol: First evaluated this 5′4″, ectomorphic, single person who was […] at the time.
On Nov. […] They were started on Celexa 10 mg, Adipex-P 37.5 one-half tablet, and atenolol 25 mg all in the morning.
They will keep in touch with me as they will take each instruction for four doses and then go to the next.

Patient three = experiment: Protocol and results with patient three (chronic fatigue)
Source text: Longstanding patient in my practice who […] developed a viral illness followed by chronic fatigue. This problem persisted, numerous evaluations and consultations were obtained, in excess of 20 physicians were consulted, and the patient was followed for nine months in a major medical center with the diagnosis of chronic Lyme disease. Prior to this their symptoms included a compendium of mild lifelong autonomic dysfunction including chronic bladder and urethral problems which necessitated urological surgery in the distant past. They had not retired from work but had taken long leaves of absence and found it difficult to keep up their normal work schedule as a social worker, something they had done for many years. In the past for their autonomic dysfunction they had been placed on Depakote, Wellbutrin, and amitriptyline and they were on this when they became ill.
Their other medical problems included mitral valve prolapse with click and no murmur but no symptoms, a history of endometriosis, occasional kidney stones, and an ovarian cyst.
Therapy was begun on May 26, 1999. On Jun. […] They were still on 12.5 mg of Elavil or one-half pill and some minocin for acne, Wellbutrin from their psychiatrist, and Zithromax, an antibiotic started by other physicians for the treatment of Lyme disease. […]

Which results are given for `COc1cc2c(cc1OC)C(=O)C(CC1CCN(Cc3ccccc3)CC1)C2` (stereo not shown) [Aricept, donepezil]?
improvement (weight, fatigue) (Patient four; Adipex-P 37.5 one-half + Celexa 10 mg twice weekly + Aricept one-quarter pill MWF, in the absence of fenfluramine): essentially no improvement; cardiac index remeasured (Patient four; combination Adipex-P 37.5 one-half + Zoloft 25 mg + Aricept 1.25 mg + fenfluramine 5 mg (+ atenolol 12.5 mg)): even more improved than previously; body weight the next month (Patient four; from 235 lb June 1999, combination Adipex-P 37.5 one-half + Zoloft 25 mg + Aricept 1.25 mg + fenfluramine 5 mg (+ atenolol 12.5 mg)): 218; chronic fatigue remaining, of its original (Patient six): ~20%; body weight (Patient two): 127 lb; side effect noted by patient (Patient three; combination reduced to Adipex-P 37.5 one-half, Celexa one-quarter, Aricept one-quarter, fenfluramine one-quarter pill q.a.m.): some difficulty sleeping; patient-reported status (Patient three; within two days, combination Adipex-P 37.5 mg one-half b.i.d. + Celexa 10 mg q.d. + fenfluramine 10 mg q.d. + Aricept one-half q.d.): life had been transformed back towards its normal status
